Patent EP0920857B1, “Oral composition for the treatment of halitosis” (DENTAID, S.A., priority 1997, dated 1999)

Legend:
Assay in all cases: minimum inhibitory concentration (MIC), method of diffusion in agar
Assay type in all cases: cell-based
[1] = test system: A.actinomycetemcomitans
Source text: (§1) The anti-microbial activity of a certain number of active ingredients was obtained by study of the minimum inhibitory concentrations (MIC) of the respective agents (by the method of diffusion in agar) against bacteria representing periodontal disease.

[2] = test system: P.gingivalis
Source text: as §1

[3] = test system: P.intermedia
Source text: as §1

## CCCCCCCCCCCCCCCC[n+]1ccccc1 [CPC, cetylpyridinium chloride]
[1]
  Minimum inhibitory concentration: >0.02%
[2]
  Minimum inhibitory concentration (%): 0.0006%
[3]
  Minimum inhibitory concentration (MIC, % concentration): 0.0003%
